Assay results published in patent US10315976B2, “Organic compounds” (Givaudan SA, priority 2013, dated 2019).

Assay: Olfactory evaluation of odour characteristics by perfumers
Conditions: odour description, applicant / perfumers
Procedure: The reported NMR spectra were measured in CDCl3 at 400 MHz if not otherwise stated; chemical shifts are reported in ppm downfield from TMS; coupling constants J in Hz. The GC/MS analyses were run using a ZB-5 column, if not stated otherwise. All purified products were either crystallized and isolated as white solids or purified by distillation in vacuo and isolated as colorless oils, the purity was confirmed by GC/MS. Samples for olfactory evaluation were purified by rectification over a distillation column with Sulzer packing.

Substance: (E/Z)-5,9-dimethyldeca-4,8-dienal and (E/Z)-5,9-dimethyldeca-4,9-dienal [Example 2]
- Odour: Fruity, apple, citrus, fatty, aldehydic, metallic, slightly hot iron, long lasting
- Odour (listed as drawing 3): fruity, citrus, fatty, slightly hot iron and metallic
